The whole screen tested about 360,000 compounds, of which about 7,500 (2.1%) were called active. Inconclusive means that the source gave no clear call. Such entries were picked first, then a sample of the others. The call rests on the fitted dose curve; in most records, active means well fitted inhibition curve with a large enough effect; inconclusive means small, poorly fitted or top-dose-only effect, or effect the other way; inactive means flat fitted curve, though single readings scatter. Where the call is inconclusive, the potency comes from a doubtful curve fit.
Assay: Nrf2 qHTS screen for inhibitors; further: nearly all actives have a fitted effect of over 60% in size
Settings: A549 ARE-Fluc reporter, luciferase luminescence, 18-24 h; activity change, negative = inhibition: at 46 µM (top of the series)
Summary of the method: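 A549 ARE_Fluc cells, 5000/well, 5% FBS OPTI-MEM; compounds in dose-response, 18-24 h at 37 °C/5% CO2; CellTiter-Fluor viability read (Ex 405/Em 525), then BugLite luciferase luminescence = Nrf2 activity.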
On the % scale 0 is the no-effect control and ±100 the full control effect; potency means the concentration at half of the fitted maximal effect.

| Structure (SMILES) | Potency | activity change, negative = inhibition |
| --- | --- | --- |
| O=C(N/N=C/c1ccc([N+](=O)[O-])o1)c1cn(-c2ccccc2)nc1-c1ccccc1 | inconclusive: 9.2 µM [falling, single point] |  |
| Cc1ccc(C2CN(C)C3(C(=O)Nc4ccccc43)C23COc2ccccc2C3=O)cc1 (configuration not stated) | inconclusive: 11.6 µM [falling, partial curve] |  |
| Nc1c(-c2ccccc2)cc[nH]c1=O | inactive |  |
| CC1CCCC(C)N1C(=O)CSc1nnnn1-c1cccc2c1CCCC2 (configuration not stated) | inconclusive: 10.3 µM [falling, partial curve] |  |
| COc1ccc(-c2cnc3nc[nH]c(=O)c3n2)cc1 |  | inconclusive: 46.4% [activator] |
| CC1=C(C(=O)OCc2ccccc2)C(c2ccccc2[N+](=O)[O-])NC(=O)N1C (configuration not stated) | inactive |  |
| COc1ccccc1C(=O)Nc1nnc(-c2ccccc2)s1 | inconclusive: 25.9 µM [activator, single point] |  |
| COc1ccc(OC)c(S(=O)(=O)Nc2ccc(-c3ccc4nncn4n3)cc2)c1 | inconclusive: 14.6 µM [falling, partial curve] |  |
| CN(c1ccc(C(=O)Nc2cccnc2)cc1)S(=O)(=O)c1ccc(Cl)cc1 | inconclusive: 16.4 µM [falling, partial curve, poor fit] |  |
| COc1ccc(-c2nnc(N(C)C(=O)c3ccno3)s2)cc1 | inconclusive: 13 µM [activator, single point] |  |
| CC(=O)c1ccc(NC(=S)NCCc2ccccn2)cc1 | inconclusive: 16.4 µM [activator, partial curve, poor fit] |  |
| O=C(C1CC1)N1CCc2cc(S(=O)(=O)N3CCN(c4ccccc4)CC3)ccc21 | inconclusive: 29.1 µM [falling, single point] |  |
| COc1ccc(-c2oc3ccccc3c2C(=O)OCc2ccc(O)cc2)cc1 | inconclusive: 32.6 µM [activator, single point] |  |
| Cc1ccc(Cl)cc1NC(=O)Cc1ccc(-n2c(C)nc3cccnc32)cc1 | inconclusive: 20.6 µM [falling, single point] |  |
| CC(C)(C)NC(=S)NNC(=O)[C@H]1C[C@@H]1c1ccccc1 | inconclusive: 18.4 µM [activator, single point] |  |
| O=C(C[n+]1cccc(NC(=O)c2ccccc2)c1)c1cccc([N+](=O)[O-])c1 | inconclusive: 20.6 µM [activator, single point] |  |
| C[C@]12C=CC(=O)C=C1CC[C@@H]1[C@@H]2[C@@H](O)C[C@@]2(C)[C@H]1CC[C@]2(O)C(=O)COC(=O)CCC(=O)O | active: 0.0461 µM |  |
| C=CCn1cccc(C(=O)Nc2ccc(OC)cc2)c1=O | inconclusive: 2.91 µM [activator, full curve, poor fit] |  |
| COCC1CCCN(Cc2cn(-c3ccccc3)nc2-c2ccc3c(c2)OCO3)C1 (configuration not stated) | inconclusive: 2.91 µM [activator, single point] |  |
| Cc1cc2ncn(-c3ncnc4sc5c(c34)CCC(C)C5)c2cc1C (configuration not stated) | inactive |  |
| O=c1[nH]c2ccccc2nc1/C=C(\O)c1cccs1 | inconclusive: 2.06 µM [activator, partial curve, poor fit] |  |
| Cn1cnnc1Sc1nc([N+](=O)[O-])nn1C | inactive |  |
| CCN(CC)C(=O)c1cnn(-c2ccccc2)c1NC(=O)c1ccco1 | inactive |  |

| Structure (SMILES) | Potency | activity change, negative = inhibition |
| --- | --- | --- |
| CCCNC(=S)N1CCC(Cc2ccccc2)CC1 | inconclusive: 16.4 µM [falling, single point] |  |
| C/C(=C\C(=S)Nc1ccccc1)Nc1ccc2ccccc2c1 | inactive |  |
| O=C(COc1ccc2ccccc2c1)N/N=C/c1ccccn1 | inconclusive: 23.1 µM [falling, single point] |  |
| CS/C(=N\NC(N)=O)c1ccccc1 | inactive |  |
| CCOC(=O)/C=C/C(=O)Nc1ccccc1-c1ccccc1NC(=O)/C=C/C(=O)OCC | inconclusive: 29.1 µM [activator, single point] |  |
| O=C(Cc1ccccc1F)NNC(=O)c1cccs1 | inconclusive: 29.1 µM [activator, single point] |  |
| COC(=O)Nc1ccc(S(=O)(=O)N2CCC(C(=O)N3CCCCC3C)CC2)cc1 (configuration not stated) | inconclusive: 25.9 µM [falling, partial curve, poor fit] |  |
| CCOC(=O)c1cccc(NC(=O)c2cc(C)nn2-c2ccccc2)c1 | inconclusive: 20.6 µM [falling, single point] |  |
| Clc1ccc(CSc2ncnc3c2ncn3C2CCCCO2)cc1 (configuration not stated) | inconclusive: 29.1 µM [falling, single point] |  |
| Cc1ccc(N/C=C/C(=O)c2cccs2)cc1 | inconclusive: 1.84 µM [activator, partial curve] |  |
| COc1cccc(Nc2nc(N)c([N+](=O)[O-])c(NCc3ccccc3)n2)c1 | inconclusive: 25.9 µM [falling, single point] |  |
| COc1cccc(C2CC(=O)Nc3c2c(=O)[nH]c2nc4ccccc4n32)c1 (configuration not stated) | inconclusive: 4.11 µM [falling, partial curve, poor fit] |  |
| CN(CC(=O)Nc1ccccc1Br)C(=O)c1ccccc1-c1nc2ccccc2s1 | inactive |  |
| CCOCCCNC(=O)c1cc(Sc2ccc(C)cc2)nc2ccccc12 | active: 23.1 µM |  |
| O=C1CCc2cc(OCCCCc3nnnn3C3CCCCC3)ccc2N1 | inconclusive: 20.6 µM [falling, single point] |  |
| CCOc1cc(C2c3c(n[nH]c3C)C(=O)N2c2ccc(Br)cc2)ccc1O (configuration not stated) | inconclusive: 29.1 µM [activator, single point] |  |
| Cc1cccc(OCC(=O)Nc2cccc(-c3nnc(-c4ccccc4)o3)c2)c1C | inconclusive: 23.1 µM [falling, single point] |  |
| Cc1ccnc(SC2CC(=O)N(c3ccc(C(C)C)cc3)C2=O)n1 (configuration not stated) | inconclusive: 32.6 µM [falling, single point] |  |
| Cc1ccccc1C(=O)N1CCC(C(=O)Nc2ccc(S(=O)(=O)N3CCCCC3)cc2)CC1 | inconclusive: 29.1 µM [falling, single point] |  |
| CCCN1/C(=C(/C#N)C2=NS(=O)(=O)c3ccccc32)N(C)c2ccccc21 | inconclusive: 0.731 µM [activator, partial curve, poor fit] |  |
| COc1cc(/C=C2/C(=O)NN(c3cccc(C)c3)C2=O)ccc1OC(=O)c1ccco1 | inactive |  |
| O=C(Nc1ccc(S(=O)(=O)NC2CCCC2)cc1)c1cnccn1 | inconclusive: 18.4 µM [falling, partial curve, poor fit] |  |
| Cc1ccc(OCC(=O)Nc2cccc(S(=O)(=O)N3CCCCCC3)c2)cc1C | inconclusive: 23.1 µM [falling, partial curve, poor fit] |  |

| Structure (SMILES) | Potency | activity change, negative = inhibition |
| --- | --- | --- |
| O=C(COc1ccc([N+](=O)[O-])cc1)Nc1nc2c(s1)CCCC2 | inactive |  |
| C=CCN(CC=C)CCOc1ccc(OC(C)C)cc1 | inconclusive: 16.4 µM [activator, partial curve] |  |
| O=C(Nc1ccc(Cl)cn1)c1ccc2c(c1)OCCO2 | inconclusive: 0.82 µM [activator, full curve, poor fit] |  |
| Cc1ccc(C)c2[nH]c(=O)c(C(c3nnnn3Cc3ccco3)N3CCc4ccccc4C3)cc12 (configuration not stated) | inconclusive: 23.1 µM [falling, single point] |  |
| O=C(Cn1ccc([N+](=O)[O-])n1)N1CCc2ccccc21 | inactive |  |
| CC1CCN(S(=O)(=O)c2ccc(NC(=O)CN3CCOCC3)cc2)CC1 | inconclusive: 5.8 µM [falling, partial curve, poor fit] |  |
| CCOc1ccc(C(=O)Nc2ccccc2N2CCN(C(=O)c3ccccc3)CC2)cc1[N+](=O)[O-] | inconclusive: 3.66 µM [falling, full curve] |  |
| O=C(C1=C[C@@H](c2ccc(C(F)(F)F)cc2)C[C@@H](OCCCCO)O1)N1CCN(Cc2ccccc2)CC1 | inconclusive: 23.1 µM [falling, single point] |  |
| CCC(C)NC(=O)CS(=O)Cc1nc(-c2ccccc2C)oc1C (configuration not stated) | inactive |  |
| CC(C(=O)NC(=O)NC1CCCCC1)N1CCN(c2ccc(O)cc2)CC1 (configuration not stated) | inactive |  |
| Cc1ccccc1/C=N/Nc1nc2ccccc2c(=O)n1O | inconclusive: 16.4 µM [activator, partial curve] |  |
| Clc1ccc(-c2cn3cc(Br)ccc3n2)cc1Cl | inconclusive: 0.92 µM [activator, full curve, poor fit] |  |
| Cc1ccc(N2C(=N)/C(=C3/Nc4ccccc4S3)C(c3ccccc3)C2=O)cc1 (configuration not stated) | inactive |  |
| COc1ccc(Cl)cc1C(=O)Nc1cccc(-c2ccc3nncn3n2)c1 | inconclusive: 1.46 µM [falling, full curve] |  |
| CC(=O)OCC(=O)[C@@]1(O)CC[C@H]2[C@@H]3CCC4=CC(=O)C=C[C@]4(C)[C@H]3C(=O)C[C@@]21C | inconclusive: 0.092 µM [falling, full curve, poor fit] |  |
| COc1ccccc1N(CC(=O)Nc1ccc(Br)cc1F)S(=O)(=O)c1cccs1 | inconclusive: 18.4 µM [falling, partial curve] |  |
| O=C(C1CCCO1)N1CCN(C(=S)Nc2ccccc2)CC1 (configuration not stated) | inactive |  |
| O=C(NCCCl)NNc1c(Cl)cc(Cl)cc1Cl | inconclusive: 23.1 µM [activator, single point] |  |
| COc1cc(CC(=O)Nc2ccc3c(c2)CCC3)cc(OC)c1OC | inconclusive: 23.1 µM [falling, partial curve, poor fit] |  |
| Cc1ccc(C)c(SCC(=O)Nc2nnc(-c3ccccc3)o2)c1 | inconclusive: 35.5 µM [falling, single point] |  |
| O=C1CCCc2cc(S(=O)(=O)N3CCCC(C(=O)NCc4ccc(Cl)cc4)C3)ccc2N1 (configuration not stated) | inconclusive: 29.1 µM [falling, single point] |  |

Exported bar-delimited: 16 of the compounds above
Structure (SMILES) | Potency | activity change, negative = inhibition
Cc1ccc(C)c2[nH]c(=O)c(C(c3nnnn3Cc3ccco3)N3CCc4ccccc4C3)cc12 (configuration not stated) | inconclusive: 23.1 µM [falling, single point] | 
O=C(Cn1ccc([N+](=O)[O-])n1)N1CCc2ccccc21 | inactive | 
CC1CCN(S(=O)(=O)c2ccc(NC(=O)CN3CCOCC3)cc2)CC1 | inconclusive: 5.8 µM [falling, partial curve, poor fit] | 
CCOc1ccc(C(=O)Nc2ccccc2N2CCN(C(=O)c3ccccc3)CC2)cc1[N+](=O)[O-] | inconclusive: 3.66 µM [falling, full curve] | 
O=C(C1=C[C@@H](c2ccc(C(F)(F)F)cc2)C[C@@H](OCCCCO)O1)N1CCN(Cc2ccccc2)CC1 | inconclusive: 23.1 µM [falling, single point] | 
CCC(C)NC(=O)CS(=O)Cc1nc(-c2ccccc2C)oc1C (configuration not stated) | inactive | 
CC(C(=O)NC(=O)NC1CCCCC1)N1CCN(c2ccc(O)cc2)CC1 (configuration not stated) | inactive | 
Cc1ccccc1/C=N/Nc1nc2ccccc2c(=O)n1O | inconclusive: 16.4 µM [activator, partial curve] | 
Clc1ccc(-c2cn3cc(Br)ccc3n2)cc1Cl | inconclusive: 0.92 µM [activator, full curve, poor fit] | 
Cc1ccc(N2C(=N)/C(=C3/Nc4ccccc4S3)C(c3ccccc3)C2=O)cc1 (configuration not stated) | inactive | 
COc1ccc(Cl)cc1C(=O)Nc1cccc(-c2ccc3nncn3n2)c1 | inconclusive: 1.46 µM [falling, full curve] | 
CC(=O)OCC(=O)[C@@]1(O)CC[C@H]2[C@@H]3CCC4=CC(=O)C=C[C@]4(C)[C@H]3C(=O)C[C@@]21C | inconclusive: 0.092 µM [falling, full curve, poor fit] | 
COc1ccccc1N(CC(=O)Nc1ccc(Br)cc1F)S(=O)(=O)c1cccs1 | inconclusive: 18.4 µM [falling, partial curve] | 
O=C(C1CCCO1)N1CCN(C(=S)Nc2ccccc2)CC1 (configuration not stated) | inactive | 
O=C(NCCCl)NNc1c(Cl)cc(Cl)cc1Cl | inconclusive: 23.1 µM [activator, single point] | 
COc1cc(CC(=O)Nc2ccc3c(c2)CCC3)cc(OC)c1OC | inconclusive: 23.1 µM [falling, partial curve, poor fit] | 
